Publication PMC5680924
No constants are given. Whether binding was seen depends on the method and setting. Binding seen in cells or lysates may run through a third protein. These calls come from enrichment with a bait or labelling near it, and not all partners need be listed. Tags and fused reporters may be left off the sequences shown.

Chains of the proteins cited; added tags and fusions are not shown.
UniProt O00429: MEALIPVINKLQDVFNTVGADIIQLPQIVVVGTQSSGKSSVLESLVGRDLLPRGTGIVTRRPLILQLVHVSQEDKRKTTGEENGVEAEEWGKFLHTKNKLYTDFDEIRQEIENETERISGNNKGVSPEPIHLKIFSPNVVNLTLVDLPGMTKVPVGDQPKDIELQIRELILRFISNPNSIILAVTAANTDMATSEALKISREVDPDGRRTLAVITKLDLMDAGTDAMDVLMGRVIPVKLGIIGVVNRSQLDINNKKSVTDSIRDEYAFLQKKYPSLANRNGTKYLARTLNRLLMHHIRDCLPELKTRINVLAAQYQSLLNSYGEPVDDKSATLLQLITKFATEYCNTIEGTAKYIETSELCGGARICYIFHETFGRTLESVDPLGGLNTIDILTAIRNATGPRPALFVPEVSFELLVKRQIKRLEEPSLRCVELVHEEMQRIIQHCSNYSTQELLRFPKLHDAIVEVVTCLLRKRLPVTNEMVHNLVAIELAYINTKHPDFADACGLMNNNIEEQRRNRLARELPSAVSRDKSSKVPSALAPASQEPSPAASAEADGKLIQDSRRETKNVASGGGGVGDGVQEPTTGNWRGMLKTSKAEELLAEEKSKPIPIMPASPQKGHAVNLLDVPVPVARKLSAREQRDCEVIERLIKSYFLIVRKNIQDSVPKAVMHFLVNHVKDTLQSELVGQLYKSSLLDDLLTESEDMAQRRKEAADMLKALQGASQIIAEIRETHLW

Target: T1, GST-tagged GBP2 (human) (UniProt P32456)
T1 sequence: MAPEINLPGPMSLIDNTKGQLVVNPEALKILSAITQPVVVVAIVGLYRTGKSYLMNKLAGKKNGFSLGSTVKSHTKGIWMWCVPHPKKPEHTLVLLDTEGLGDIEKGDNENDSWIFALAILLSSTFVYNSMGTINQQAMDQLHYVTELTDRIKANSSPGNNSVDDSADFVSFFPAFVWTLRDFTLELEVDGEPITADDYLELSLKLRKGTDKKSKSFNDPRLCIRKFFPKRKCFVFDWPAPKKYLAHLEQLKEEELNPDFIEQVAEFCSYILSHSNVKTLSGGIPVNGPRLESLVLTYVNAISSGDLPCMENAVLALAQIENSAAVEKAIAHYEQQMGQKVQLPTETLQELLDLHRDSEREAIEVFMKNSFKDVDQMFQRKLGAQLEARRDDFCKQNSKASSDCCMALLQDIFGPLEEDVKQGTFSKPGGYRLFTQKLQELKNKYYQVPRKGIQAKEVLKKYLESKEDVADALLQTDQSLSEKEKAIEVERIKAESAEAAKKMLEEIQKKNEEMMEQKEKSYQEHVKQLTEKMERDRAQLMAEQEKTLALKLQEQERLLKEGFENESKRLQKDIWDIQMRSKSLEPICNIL
Assay: affinity purification with mass spectrometry; GST or GST-GBP2 bound to resin, incubated with cell lysate; silver-stained bands specific to GST-GBP2 excised, nanoLC-MS/MS; two independent experiments; only the target purified

- binding: binds
Substance: dynamin-related protein 1 (Drp1), endogenous (from UniProt O00429 1-736)
